From article doi:10.1101/2020.07.08.194076

Key:
[1] = biological target: SlGGPPS2 (tomato geranylgeranyl diphosphate synthase 2), C-terminal Myc tag (tomato (Solanum lycopersicum)); experiment: co-IP
[2] = biological target: SlGGPPS3 (tomato geranylgeranyl diphosphate synthase 3), C-terminal Myc tag (tomato (Solanum lycopersicum)); experiment: co-IP

B1: Phytoene synthase 1 (PSY1), tomato, C-terminal HA tag (enzyme, UniProt P08196 130-412)
chain: EYAKTFNLGTMLMTPERRRAIWAIYVWCRRTDELVDGPNASYITPAALDRWENRLEDVFNGRPFDMLDGALSDTVSNFPVDIQPFRDMIEGMRMDLRKSRYKNFDELYLYCYYVAGTVGLMSVPIMGIAPESKATTESVYNAALALGIANQLTNILRDVGEDARRGRVYLPQDELAQAGLSDEDIFAGRVTDKWRIFMKKQIHRARKFFDEAEKGVTELSSASRFPVWASLVLYRKILDEIEANDYNNFTKRAYVSKSKKLIALPIAYAKSLVPPTKTASLQR
binding [1]: binds | binding [2]: no binding

B2: Phytoene synthase 2 (PSY2), tomato, C-terminal HA tag (enzyme, UniProt P37273 26-310)
chain: EYAKTFYLGTMLMTPDRRRAIWAIYVWCRRTDELVDGPNASHITPQALDRWEARLEDIFNGRPFDMLDAALSDTVSRFPVDIQPFRDMVEGMRMDLWKSRYNNFDELYLYCYYVAGTVGLMSVPIMGIAPESKATTESVYNAALALGIANQLTNILRDVGEDARRGRVYLPQDELAQAGLSDEDIFAGKVTDKWRIFMKKQIQRARKFFDEAEKGVTELSSASRWPVLASLLLYRKILDEIEANDYNNFTRRAYVSKPKKLLTLPIAYARSLVPPKSTSCPLAKT
binding [1]: binds | binding [2]: no binding

These are yes or no findings as the source states them, for the method shown. In cells and extracts the contact can be indirect. For some of these results: Binding calls can cover weak binding; strength is not graded here. Sequences can lack the tags named with a protein.
